Test results from PubChem BioAssay AID2685 (National Center for Advancing Translational Sciences (NCATS), 2010).
This is one part of the list. These are further read-outs of the screen, such as a control signal, another cell line or another target. No call is given for them. Most of these compounds were active or inconclusive in the main read-out, so they are no random draw. Words in brackets tell the shape of the fitted curve; partial curves, single points and poor fits give uncertain potencies.

Assay: qHTS Assay for Lipid Storage Modulators in Drosophila S3 Cells;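 for cell number change: cells counted by Cell Tracker Red CMTPX staining in the red channel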
Details: BODIPY lipid droplet fluorescence, 18-24 h; for cell number change: measured here: cell count max response, cells fed with added oleic acid
Summary of the method: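 Laser-scanning cytometry quantifies lipid droplet accumulation (500–530 nm total intensity; droplet/cell object ratio) in oleic acid-fed (400 uM added) Drosophila S3 cells treated with a concentration series. 20 uM Triacsin C defined 100% inhibition.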

[1] = measured here: lipid fluorescence (Fed channel) AC50, cells fed with added oleic acid
[2] = measured here: cell number channel AC50, cells fed with added oleic acid

Row | Structure (SMILES) | cell number change [%] | AC50 [1] | AC50 [2]
1 | COc1ccc(/C=C/c2c(-c3ccc(OC)cc3)sc3ccc(N4CCOCC4)cc23)cc1 | 12.6 | 25.9 µM [rising, single point] | –
2 | O=C(CSc1ccc(F)cc1)NCCc1ccc(Cl)cc1 | 35.9 | 0.731 µM [rising, partial curve, poor fit] | 1.46 µM [rising, full curve, poor fit]
3 | CCOC(=O)CN1C(=O)C(Sc2n[nH]c(-c3ccc(O)cc3)n2)CCc2ccccc21 (stereo not drawn) | – | 6.51 µM [rising, single point] | –
4 | O=C(/C=C/c1ccccc1)OCCN=C1NS(=O)(=O)c2ccccc21 | -3.95 | 5.62 µM [falling, single point] | –
5 | CCOc1ccc2nc(-c3ccccc3)nc(SCC(=O)OC)c2c1 | -14.2 | – | –
6 | Cc1ccc(CNC(=O)CSc2n[nH]c(N)n2)cc1 | 71 | 16.4 µM [rising, partial curve] | 14.6 µM [rising, partial curve]
7 | CC(=O)COc1cc(C)cc2oc(=O)cc(-c3ccccc3)c12 | 38.2 | – | 13 µM [rising, partial curve, poor fit]
8 | O=C(CN1CCN(c2ccccn2)CC1)Nc1cccc(Br)c1 | -58.1 | – | 29.1 µM [falling, single point]
9 | Cc1ccccc1OCC(=O)Nc1nnc(-c2ccco2)s1 | -18 | 0.13 µM [falling, full curve, poor fit] | –
10 | COc1ccc(/C=C2\N=C(SC)N(c3ccccc3OC)C2=O)cc1 | 11.5 | – | –
11 | O=C(N/N=C/c1cccnc1)c1cccc(NC(=O)c2ccc(Cl)cc2)c1 | 1.74 | 6.51 µM [rising, partial curve, poor fit] | –
12 | COc1cc(C2C(C#N)=C(N)OC3=C2C(=O)CC(C)(C)C3)ccc1OCCN1CCOCC1 (stereo not drawn) | 18.5 | 11.6 µM [rising, single point] | –
13 | O=S(=O)(NCc1ccccn1)c1cccc2nsnc12 | -0.806 | 3.66 µM [falling, single point] | 0.82 µM [falling, single point]
14 | COc1ccc(-n2nc(C(=O)NCC(=O)N3CCN(Cc4ccccc4)CC3)c3ccccc3c2=O)cc1 | – | 0.82 µM [falling, full curve] | –
15 | CCn1c(SCC(=O)N2CCC(C)CC2)nnc1-c1ccc(S(=O)(=O)N2CCN(C)CC2)cc1 | 12.6 | – | –
16 | COc1cccc(OC(=O)CSc2nnc(-c3ccccc3Br)o2)c1 | -18.6 | 29.1 µM [falling, single point] | –
17 | CC1=C(C(=O)Nc2ccccc2)C(c2ccco2)C(C#N)=C(SCC(=O)Nc2cccc(C)c2C)N1 (stereo not drawn) | – | 6.51 µM [rising, single point] | –
18 | Cc1ccc2nc(-c3ccc(NC(=O)C(C)N4C(=O)c5ccccc5C4=O)cc3)sc2c1 (stereo not drawn) | 26.6 | 0.58 µM [falling, partial curve] | –
19 | O=C(NCc1cc([N+](=O)[O-])ccc1O)c1cccnc1Sc1ccc(Cl)cc1 | 31.9 | – | 11.6 µM [rising, single point]
20 | C=CCOC(=O)C1=C(C)NC(=O)NC1c1cn(-c2ccccc2)nc1-c1cccs1 (stereo not drawn) | 39.3 | – | 3.66 µM [rising, full curve]

Row | Structure (SMILES) | cell number change [%] | AC50 [1] | AC50 [2]
21 | COc1ccc(N2CC(C(=O)Nc3ccc4c(c3)OCCO4)CC2=O)cc1 (stereo not drawn) | -36.8 | – | –
22 | CCOc1ccc(C(=O)N[C@H](C(=O)O)C(C)C)cc1 | 15.6 | 0.103 µM [falling, full curve, poor fit] | –
23 | NC(=O)CCCn1c(C(=O)c2cc(Cl)c(N)c(Cl)c2)c2ccc(C(F)(F)F)cc2[n+]1[O-] | 18.5 | 0.116 µM [rising, partial curve, poor fit] | –
24 | Cc1nn(-c2ccc(Cl)c(Cl)c2Cl)c(=O)c2ccccc12 | 21.1 | 4.11 µM [rising, single point] | –
25 | CN(CCN1CCOCC1)C(=O)CC1C(=O)NCCN1Cc1ccccc1C(F)(F)F (stereo not drawn) | 1.47 | – | –
26 | COc1ccc(CNC(=O)C2CCCN(S(=O)(=O)c3ccc(Br)s3)C2)cc1 (stereo not drawn) | 7.69 | – | –
27 | COc1ccc(Cn2c(C)cc3c(c2=O)C(c2cccs2)C(C#N)=C(N)O3)cc1OC (stereo not drawn) | 41.5 | 1.64 µM [rising, partial curve] | 0.291 µM [rising, full curve]
28 | CCCCN(C)CCN1C(=O)C2C(C(=O)Nc3ccc(OC)cc3)C3C=CC2(O3)C1C(=O)NC1CCCCC1 (stereo not drawn) | 15.2 | 0.206 µM [falling, single point] | –
29 | O=C(CN1CCCCCC1)Nc1c(Cl)cc(Cl)cc1Cl | 1.17 | – | –
30 | CC(C)C(=O)Nc1ccc(C(=O)N/N=C/c2cc(Br)cc(Br)c2O)cc1 | -62.3 | 9.2 µM [falling, partial curve] | 8.2 µM [falling, partial curve]
31 | COc1ccc(NC(=O)CN(Cc2ccco2)Cc2ccco2)cc1S(=O)(=O)N1CCCCC1 | 13.7 | 0.013 µM [rising, partial curve, poor fit] | –
32 | COc1cc(C(C(=O)NCc2ccccc2)N(Cc2ccco2)C(=O)c2cnccn2)cc(OC)c1OC (stereo not drawn) | -49.3 | 5.17 µM [rising, single point] | 4.61 µM [falling, single point]
33 | O=C(COC(=O)CCc1ccccc1)NC12CC3CC(CC(C3)C1)C2 | -13.5 | 3.66 µM [falling, single point] | –
34 | COc1ccccc1C(=O)NCCC(=O)N1CCN(S(=O)(=O)c2cccc(Cl)c2)CC1 | -0.648 | 0.0326 µM [falling, full curve, poor fit] | –
35 | COc1ccc(N2CCN(C(C)C(=O)N3CC(C)OC(C)C3)CC2)cc1 (stereo not drawn) | -27.1 | 23.1 µM [falling, single point] | –
36 | CCc1ccc(NC(=O)COc2ccc(Br)cn2)cc1 | – | 0.00461 µM [falling, full curve, poor fit] | –
37 | NC(=O)c1sc2nc3c(c(-c4ccco4)c2c1N)CCC3 | – | – | 5.8 µM [rising, single point]
38 | CN(Cc1ccccc1)c1nc(CN2CCOCC2)nc2scc(-c3ccccc3)c12 | 12.5 | – | 3.26 µM [rising, single point]
39 | CCSCc1nnc(SCC(=O)Nc2cccc(SC)c2)n1C | 1.57 | 29.1 µM [falling, single point] | 6.51 µM [falling, single point]
40 | CNS(=O)(=O)c1cccc(C(=O)OCc2cc(=O)n3cc(Br)ccc3n2)c1 | 8.62 | 7.31 µM [rising, partial curve, poor fit] | –

Compounds above that have fluorine, in the order listed:
Row | Structure (SMILES) | cell number change [%] | AC50 [1] | AC50 [2]
2 | O=C(CSc1ccc(F)cc1)NCCc1ccc(Cl)cc1 | 35.9 | 0.731 µM [rising, partial curve, poor fit] | 1.46 µM [rising, full curve, poor fit]
23 | NC(=O)CCCn1c(C(=O)c2cc(Cl)c(N)c(Cl)c2)c2ccc(C(F)(F)F)cc2[n+]1[O-] | 18.5 | 0.116 µM [rising, partial curve, poor fit] | –
25 | CN(CCN1CCOCC1)C(=O)CC1C(=O)NCCN1Cc1ccccc1C(F)(F)F (stereo not drawn) | 1.47 | – | –

(next part)

Row | Structure (SMILES) | cell number change [%] | AC50 [1] | AC50 [2]
41 | CSc1nc2[nH]c3c(c2c2ncnn12)CCCC3 | – | 1.3 µM [rising, full curve] | 1.46 µM [rising, partial curve]
42 | COc1ccc(C2=NS(=O)(=O)N(C)C(C(=O)NCc3cccs3)=C2)cc1OC | -17 | 32.6 µM [falling, single point] | –
43 | Cc1ccc(C(=O)c2cc3ccccc3o2)cc1C | 105 | 18.4 µM [rising, partial curve] | 18.4 µM [rising, partial curve]
44 | COc1ccc(S(=O)(=O)NC2CC(=O)N(c3ccc4c(c3)OCCO4)C2)cc1 (stereo not drawn) | 32.7 | – | 23.1 µM [rising, single point]
45 | CSc1nnc(C2CCCN(CC(=O)Nc3ccccc3N3CCOCC3)C2)n1C(C)C (stereo not drawn) | -19.3 | 0.206 µM [rising, single point] | –
46 | CCc1ccccc1NC(=O)NCCN1CCCCC1 | 14.3 | 29.1 µM [rising, partial curve, poor fit] | –
47 | Cc1cccc(N2CCN(C(=O)CCC(=O)N3CC(C)Oc4ccc(C)cc43)CC2C)c1 (stereo not drawn) | 7.49 | 9.2 µM [falling, partial curve, poor fit] | –
48 | CCN1C(=O)c2cccc3c(S(=O)(=O)Nc4ccccc4)ccc1c23 | -25.6 | 0.164 µM [falling, full curve, poor fit] | –
49 | CN(c1ccc(OCC(=O)Nc2nc3ccccc3s2)cc1)S(=O)(=O)c1ccccc1 | -16.5 | 16.4 µM [falling, single point] | –
50 | Cc1ccc(-c2nnn(CC(=O)N(CC(=O)NC3CCCC3)c3ccc(F)cc3)n2)o1 | -15.8 | – | –
51 | O=C(Nc1cc(Cl)cc(Cl)c1)C(c1ccccc1)N1CCCCC1 (stereo not drawn) | 8.8 | 2.06 µM [rising, partial curve] | 1.84 µM [rising, partial curve]
52 | Cc1cc(-n2c(C)cc(C(=O)CCl)c2C)no1 | -61.8 | – | –
53 | CCCn1nc(C(=O)NCC2COc3ccccc3O2)c2ccccc2c1=O (stereo not drawn) | -14.6 | 0.103 µM [falling, full curve, poor fit] | –
54 | O=C1NC(=O)/C(=C\c2ccc(Oc3cnccn3)cc2)S1 | 60.3 | 0.82 µM [rising, full curve] | 20.6 µM [rising, single point]
55 | Cc1ccc(N2CC(C(=O)N3CCOCC3)CC2=O)cc1C (stereo not drawn) | -1.32 | 35.5 µM [rising, single point] | –
56 | CCC(=O)N(Cc1cc(=O)[nH]c2ccccc12)c1ccccc1C | 2.25 | 0.13 µM [falling, full curve, poor fit] | –
57 | CCC(C)NC(=O)CSc1ccc(NC(C)=O)cc1 (stereo not drawn) | 8.05 | 0.13 µM [falling, full curve, poor fit] | –
58 | CN(C)c1ccc(NC(=S)NC23CC4CC(CC(C4)C2)C3)cc1 | 9.52 | – | –
59 | COC(=O)c1ccc(N2CCOCC2)c(F)c1 | 35.3 | – | 29.1 µM [rising, single point]
